Measurements published in publication PMC12040169 (PLOS Biology, 2025).
Some of the results follow.

The molecules below were run on T1, CTL2-GFP (C. trachomatis L2/434/Bu, GFP-expressing). Settings: bulk GFP, single well; 28.5 h, 10 µM; inhibitor.
T1 construct: L2/434/Bu, GFP-expressing
Design: species or system HeLa; Intracellular C. trachomatis growth in HeLa cells, bulk GFP fluorescence relative to DMSO

SMILES	% of control remaining
O=C(NCc1ccccc1)c1cccc(NC(=O)c2cc(-c3ccncc3)nc3ccc(Cl)cc23)c1 [CBK267769]	94.8856%
CCN(CC)c1ccc(NC(=O)N(CCCN2CCOCC2)Cc2ccc(OC)c(OC)c2)cc1 [CBK159168]	118.516%
Cc1ccc(C(=O)NCCc2ccc(S(N)(=O)=O)cc2)c(N2CCN(C(=O)c3ccco3)CC2)n1 [CBK076345]	141.101%
NC(=O)c1c(NC(=O)c2cnn3cccnc23)sc2c1CCCC2 [CBK268437]	150.044%
c1ccc2c(OCCOCCN3CCCCC3)cccc2c1 [CBK262000]	110.862%
COc1cc(/C=N/n2cnnc2)ccc1OCCOc1ccc(C(C)(C)C)cc1 [CBK263762]	108.127%
CCN(CC)C(=O)N1CCC(c2cccnc2)CC1 [CBK283535]	124.398%
O=C(C[C@@H]1O[C@H](CNCc2cccc(Cl)c2)[C@@H](O)[C@H]1O)N1CCc2ccccc21 [CBK288918]	127.036%
c1ccc(-c2cc(CC3(NCC4CCCCC4)COC3)no2)nc1 [CBK289644]	101.527%
COCCNc1cc(-c2ccc(Cl)cc2)ncn1 [CBK090797]	101.956%
CN(C)CCNC(=O)Cc1csc(-c2ccc(Cl)cc2)n1 [CBK107299]	106.677%
O=C([C@@H]1Cc2c([nH]c3ccccc23)C2(CCN(Cc3ccccc3)C2)N1)N1CCOCC1 (stereo partly shown) [CBK059363T]	115.939%
CSc1ccc(-c2nccnc2OCCN(C(C)C)C(C)C)cc1 [CBK106805]	83.6715%
CCSc1nc(-c2ccncc2)ccc1C#N [CBK288539]	110.981%
Cc1ccc2oc(-c3cccc(NC(=O)c4ccccc4C(=O)O)c3)nc2c1 [CBK300481]	132.76%
NC(=O)c1cccc(-c2nccnc2N2CCN(CCO)CC2)c1 [CBK036726]	135.869%
CN(C)CCN(C)C(=O)c1ccc(-c2cccc(Cl)c2Cl)nc1N(C)C [CBK106082]	100%
CCN(CC)C(=O)C1CCCN(C(=O)NC2CCc3ccccc32)C1 (stereo not shown) [CBK156156]	115.05%
Oc1cccc(OCCOc2nc3ccccc3nc2N2CCCC2)c1 [CBK115901]	107.859%
CCn1cc(C(=O)N2CCc3sccc3C2)c(=O)c2ccc(C)nc21 [CBK305006]	124.011%
CC(=O)N1CCc2c([nH]c3c(C)cccc23)C12CCCN(CCCC#N)C2 (stereo not shown) [CBK039705]	113.691%
CC(C)(CNC(=O)Cn1cccc(C(=O)NC2CCCCC2)c1=O)c1cccc(F)c1 [CBK286069]	124.546%
Cn1c(=O)c2c(ncn2CC(=O)Nc2ccc(OCc3ccccc3)cc2)n(C)c1=O [CBK130478]	100%
O=C(O)c1ccccc1-c1ccccc1C(=O)Nc1ccccc1-c1ccccc1 [CBK262843]	100%
Cc1nc(C2CCCN(C(=O)C3CCC3)C2)nc2c1CCCN2Cc1ccccc1 (stereo not shown) [CBK286257]	104.043%
CCc1nn(CC(=O)N(C(C)C)C(C)C)c(=O)c2cc3occc3n12 [CBK283658]	110.849%
Nc1ccc(Cl)cc1C(O)(CCCN1CCCCC1)c1ccccc1 (stereo not shown) [CBK023107]	143.697%

SMILES	% of control remaining
CC(=O)CSc1nsc(SCC(C)=O)n1 [CBK006702]	110.643%
Cc1cccc(-c2ncc(NC(=O)CC3OC(=O)c4ccccc43)nc2-c2ccc(N)cc2)c1 (stereo not shown) [CBK036749]	175.298%
COCC1CN(C(=O)Nc2ncc(Cc3ccc(C)c(Cl)c3)s2)CCO1 (stereo not shown) [CBK306286]	166.201%
COc1ccc([C@@]23CC[C@@H](NC(=O)Nc4ncc(Cl)s4)C[C@@H]2N(C)CC3)cc1OC [CBK051620T]	99.1381%
CS(=O)(=O)Nc1nccnc1OC1CCN(CCc2ccccc2)CC1 [CBK084279]	100.459%
COc1cc2nc(NC(=O)C3COc4ccccc4O3)sc2cc1OC (stereo not shown) [CBK287702]	116.825%
O=C(O)c1cccc(-n2cc(-c3ccc(F)cc3F)nn2)c1 [CBK112998]	122.238%
O=C1CO[C@H]2CN(Cc3ncc[nH]3)C[C@H]2N1Cc1ccncc1 [CBK289259]	102.182%
CCn1c(CNC(=O)c2cn3ccc(C)cc3n2)nc2ccccc21 [CBK281394]	93.5846%
O=C(NCc1ccccn1)C1CCC(Cn2c(=S)[nH]c3ccccc3c2=O)CC1 (stereo not shown) [CBK266645]	152.959%
CCOC(=O)c1cnn(C2CCCN(Cc3cncs3)C2)c1 (stereo not shown) [CBK304039]	156.719%
CC(=O)N[C@@H](Cc1c[nH]cn1)C(=O)Nc1cc2ccccc2c(Br)n1 [CBK063302]	110.392%
O=C(O)COc1c(-c2ccco2)oc2ccccc2c1=O [CBK269262]	141.129%
COc1ccccc1-c1cc(C(F)F)nc(S)c1C#N [CBK288358]	122.75%
COc1ccc(C2NC(C(=O)O)C3C(=O)N(c4ccc(C)cc4)C(=O)C23)c(OC)c1 (stereo not shown) [CBK287233]	100%
CC(C)n1nnnc1-c1ccccc1NS(=O)(=O)C1CC1 [CBK305509]	148.462%
c1ccc([C@@H]2CN(Cc3cccnc3)C[C@H]2c2cc[nH]n2)cc1 [CBK285160]	117.714%
Cc1ccccc1CN1CCN(CC(=O)Nc2ccccc2C(N)=O)CC1 [CBK270296]	139.102%
CCCC/C=C/c1cnc2[nH]c(=O)n(Cc3ccccn3)c2n1 [CBK064365]	145.901%
CN(C)CCN(C)C(=O)c1ccc(-c2cccc(C(=O)NCCO)c2)nc1NCC1CC1 [CBK076603]	97.9964%
CC[C@H](Cn1c(=O)oc2ccccc21)NC(=O)C1CCCC1 [CBK284542]	93.4741%
COc1cccc2cc([C@H]3CN(C(=O)C(C)(C)N)C[C@@H]3C(=O)N3CCC4(CC3)CN(S(C)(=O)=O)c3ccccc34)oc12 [CBK001347C]	126.237%
Cc1ccc(-c2nccnc2OCc2ccccc2)cc1C [CBK106861]	107.271%
COc1cc(CN2CCN(Cc3cccc([N+](=O)[O-])c3)CC2)cc(OC)c1 [CBK263156]	111.413%
CC(=O)c1cccc(NC(=O)CCn2[nH]c(=O)ccc2=O)c1 [CBK306094]	108.863%
Fc1cccc(F)c1CN1CCN(CCc2ccccc2)CC1 [CBK126422]	118.264%
CC1CCCCN1S(=O)(=O)c1cccc2nonc12 (stereo not shown) [CBK261723]	100%

Reformatted: results already given

| SMILES | % of control remaining |
| --- | --- |
| CSc1ccc(-c2nccnc2OCCN(C(C)C)C(C)C)cc1 [CBK106805] | 83.6715% |
| CCSc1nc(-c2ccncc2)ccc1C#N [CBK288539] | 110.981% |
| Cc1ccc2oc(-c3cccc(NC(=O)c4ccccc4C(=O)O)c3)nc2c1 [CBK300481] | 132.76% |
| NC(=O)c1cccc(-c2nccnc2N2CCN(CCO)CC2)c1 [CBK036726] | 135.869% |
| CN(C)CCN(C)C(=O)c1ccc(-c2cccc(Cl)c2Cl)nc1N(C)C [CBK106082] | 100% |
| CCN(CC)C(=O)C1CCCN(C(=O)NC2CCc3ccccc32)C1 (stereo not shown) [CBK156156] | 115.05% |

(continued)

SMILES	% of control remaining
Cc1cc(C(F)(F)F)c2c(NCc3ccoc3)n[nH]c2n1 [CBK284698]	106.793%
COc1ccc(-c2nc(NC(=O)Cc3ccc(S(C)(=O)=O)cc3)cnc2-c2cccc(C)c2)cc1 [CBK037525]	132.848%
CCCc1cc(CNC(=O)CN2CCCC(C)C2)on1 (stereo not shown) [CBK282045]	149.232%
COC(=O)C1ON2CCCCC2C1(O)C(F)(F)F (stereo not shown) [CBK007430]	100.792%
CON=Cc1c[nH]c2ccccc12 [CBK168628]	155.978%
CC(=O)Nc1cccc(-c2cnc(N)c(N3CCN(C)CC3)n2)c1 [CBK063361]	106.491%
O=C(NCC1CCCCC1)N1CCN(c2cc(C(F)(F)F)ccn2)CC1 [CBK162323]	135.51%
Cc1c(Cl)cc(C(C)C)c(O)c1CNC(=O)CSc1nnc(-c2cccs2)n1C [CBK267416]	164.011%
COc1cccc(C(C(F)(F)F)P(C)(=O)O)c1 (stereo not shown) [CBK262393]	98.4927%
COc1ccnc(N2CCCN(Cc3ncc(Cl)n3C)CC2)n1 [CBK305152]	84.0149%
Cc1cc(C)cc(Nc2cc(C)n3c(=O)[nH]nc3n2)c1 [CBK288380]	140.827%
CS(=O)(=O)Nc1ccc(CNC(=O)c2ccc3[nH]ccc3c2)cc1 [CBK161747]	123.176%
Cc1ccc(N(CC(=O)Nc2ccc(Br)c(C)c2)S(=O)(=O)c2ccc(C)cc2)cc1 [CBK264038]	100%
Cc1oc2c(c1C(=O)N(C)CCN1CCCCC1)CCCC2 [CBK281907]	130.657%
O=S(=O)(CC(F)(F)F)Nc1ccc(N2CCNCC2)c2ccccc12 [CBK059354C]	96.9186%
C=CCOc1c(Br)cc(CNc2cccc(C(=O)O)c2)cc1OC [CBK074581]	119.875%
CC(C)Nc1nccnc1OCCc1c[nH]c2ccccc12 [CBK115647]	141.472%
O=c1cc(O)c2sc3nc(-c4ccco4)cc(C(F)(F)F)c3c2[nH]1 [CBK270223]	155.58%
Cc1cc(C)n2nc(SCc3nc4sc(C(=O)O)c(C)c4c(=O)[nH]3)nc2n1 [CBK297482]	124.375%
O=C(Cc1csc(-c2c(Cl)cccc2Cl)n1)NC[C@H]1CC[C@H](C(=O)O)CC1 [CBK299767]	153.756%
Cc1ccc(-n2ncc3c(=O)n(CC(=O)Nc4ccc(C)cc4C)cnc32)cc1 [CBK287535]	132.366%
Cc1cc(C)n(C(=O)CCNS(=O)(=O)c2ccc(Cl)cc2)n1 [CBK269348]	106.311%
NC(=O)CCN1CCc2ccccc2C1 [CBK138325]	102.64%
CN1CCCC(C(O)c2ccccc2)C1 (stereo not shown) [CBK012472]	147.691%
O=C(c1ccc2c(c1)OCCO2)N1CCC2(CCN(C(=O)c3cc(F)c(F)cc3F)C2)C1 (stereo not shown) [CBK131410]	118.791%
